Reference: the supplement of paper PMC10849652
The other results are listed elsewhere or left out.

Amino acid sequences for entries named in this document (tags omitted). A change or cut given only in a name is not applied to a line headed by its entry.
UniProt Q8IXV7: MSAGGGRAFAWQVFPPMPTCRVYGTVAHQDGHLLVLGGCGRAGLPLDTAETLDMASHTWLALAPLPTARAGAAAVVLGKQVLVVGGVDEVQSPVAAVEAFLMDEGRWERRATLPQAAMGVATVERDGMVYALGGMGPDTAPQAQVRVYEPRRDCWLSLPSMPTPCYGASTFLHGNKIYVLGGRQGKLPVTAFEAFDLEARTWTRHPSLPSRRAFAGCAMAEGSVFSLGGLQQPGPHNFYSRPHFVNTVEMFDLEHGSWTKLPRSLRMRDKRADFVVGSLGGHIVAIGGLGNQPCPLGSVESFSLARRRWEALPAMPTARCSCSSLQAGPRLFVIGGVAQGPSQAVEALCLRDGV
UniProt A6NCN2: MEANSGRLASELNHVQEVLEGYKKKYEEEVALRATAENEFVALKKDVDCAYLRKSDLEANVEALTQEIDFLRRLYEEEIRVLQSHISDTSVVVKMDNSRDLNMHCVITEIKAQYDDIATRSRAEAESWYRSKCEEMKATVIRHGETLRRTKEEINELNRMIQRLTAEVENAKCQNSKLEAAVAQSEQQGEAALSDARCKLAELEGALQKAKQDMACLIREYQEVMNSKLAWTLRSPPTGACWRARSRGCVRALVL
UniProt Q9UMN6, whole entry, looked up: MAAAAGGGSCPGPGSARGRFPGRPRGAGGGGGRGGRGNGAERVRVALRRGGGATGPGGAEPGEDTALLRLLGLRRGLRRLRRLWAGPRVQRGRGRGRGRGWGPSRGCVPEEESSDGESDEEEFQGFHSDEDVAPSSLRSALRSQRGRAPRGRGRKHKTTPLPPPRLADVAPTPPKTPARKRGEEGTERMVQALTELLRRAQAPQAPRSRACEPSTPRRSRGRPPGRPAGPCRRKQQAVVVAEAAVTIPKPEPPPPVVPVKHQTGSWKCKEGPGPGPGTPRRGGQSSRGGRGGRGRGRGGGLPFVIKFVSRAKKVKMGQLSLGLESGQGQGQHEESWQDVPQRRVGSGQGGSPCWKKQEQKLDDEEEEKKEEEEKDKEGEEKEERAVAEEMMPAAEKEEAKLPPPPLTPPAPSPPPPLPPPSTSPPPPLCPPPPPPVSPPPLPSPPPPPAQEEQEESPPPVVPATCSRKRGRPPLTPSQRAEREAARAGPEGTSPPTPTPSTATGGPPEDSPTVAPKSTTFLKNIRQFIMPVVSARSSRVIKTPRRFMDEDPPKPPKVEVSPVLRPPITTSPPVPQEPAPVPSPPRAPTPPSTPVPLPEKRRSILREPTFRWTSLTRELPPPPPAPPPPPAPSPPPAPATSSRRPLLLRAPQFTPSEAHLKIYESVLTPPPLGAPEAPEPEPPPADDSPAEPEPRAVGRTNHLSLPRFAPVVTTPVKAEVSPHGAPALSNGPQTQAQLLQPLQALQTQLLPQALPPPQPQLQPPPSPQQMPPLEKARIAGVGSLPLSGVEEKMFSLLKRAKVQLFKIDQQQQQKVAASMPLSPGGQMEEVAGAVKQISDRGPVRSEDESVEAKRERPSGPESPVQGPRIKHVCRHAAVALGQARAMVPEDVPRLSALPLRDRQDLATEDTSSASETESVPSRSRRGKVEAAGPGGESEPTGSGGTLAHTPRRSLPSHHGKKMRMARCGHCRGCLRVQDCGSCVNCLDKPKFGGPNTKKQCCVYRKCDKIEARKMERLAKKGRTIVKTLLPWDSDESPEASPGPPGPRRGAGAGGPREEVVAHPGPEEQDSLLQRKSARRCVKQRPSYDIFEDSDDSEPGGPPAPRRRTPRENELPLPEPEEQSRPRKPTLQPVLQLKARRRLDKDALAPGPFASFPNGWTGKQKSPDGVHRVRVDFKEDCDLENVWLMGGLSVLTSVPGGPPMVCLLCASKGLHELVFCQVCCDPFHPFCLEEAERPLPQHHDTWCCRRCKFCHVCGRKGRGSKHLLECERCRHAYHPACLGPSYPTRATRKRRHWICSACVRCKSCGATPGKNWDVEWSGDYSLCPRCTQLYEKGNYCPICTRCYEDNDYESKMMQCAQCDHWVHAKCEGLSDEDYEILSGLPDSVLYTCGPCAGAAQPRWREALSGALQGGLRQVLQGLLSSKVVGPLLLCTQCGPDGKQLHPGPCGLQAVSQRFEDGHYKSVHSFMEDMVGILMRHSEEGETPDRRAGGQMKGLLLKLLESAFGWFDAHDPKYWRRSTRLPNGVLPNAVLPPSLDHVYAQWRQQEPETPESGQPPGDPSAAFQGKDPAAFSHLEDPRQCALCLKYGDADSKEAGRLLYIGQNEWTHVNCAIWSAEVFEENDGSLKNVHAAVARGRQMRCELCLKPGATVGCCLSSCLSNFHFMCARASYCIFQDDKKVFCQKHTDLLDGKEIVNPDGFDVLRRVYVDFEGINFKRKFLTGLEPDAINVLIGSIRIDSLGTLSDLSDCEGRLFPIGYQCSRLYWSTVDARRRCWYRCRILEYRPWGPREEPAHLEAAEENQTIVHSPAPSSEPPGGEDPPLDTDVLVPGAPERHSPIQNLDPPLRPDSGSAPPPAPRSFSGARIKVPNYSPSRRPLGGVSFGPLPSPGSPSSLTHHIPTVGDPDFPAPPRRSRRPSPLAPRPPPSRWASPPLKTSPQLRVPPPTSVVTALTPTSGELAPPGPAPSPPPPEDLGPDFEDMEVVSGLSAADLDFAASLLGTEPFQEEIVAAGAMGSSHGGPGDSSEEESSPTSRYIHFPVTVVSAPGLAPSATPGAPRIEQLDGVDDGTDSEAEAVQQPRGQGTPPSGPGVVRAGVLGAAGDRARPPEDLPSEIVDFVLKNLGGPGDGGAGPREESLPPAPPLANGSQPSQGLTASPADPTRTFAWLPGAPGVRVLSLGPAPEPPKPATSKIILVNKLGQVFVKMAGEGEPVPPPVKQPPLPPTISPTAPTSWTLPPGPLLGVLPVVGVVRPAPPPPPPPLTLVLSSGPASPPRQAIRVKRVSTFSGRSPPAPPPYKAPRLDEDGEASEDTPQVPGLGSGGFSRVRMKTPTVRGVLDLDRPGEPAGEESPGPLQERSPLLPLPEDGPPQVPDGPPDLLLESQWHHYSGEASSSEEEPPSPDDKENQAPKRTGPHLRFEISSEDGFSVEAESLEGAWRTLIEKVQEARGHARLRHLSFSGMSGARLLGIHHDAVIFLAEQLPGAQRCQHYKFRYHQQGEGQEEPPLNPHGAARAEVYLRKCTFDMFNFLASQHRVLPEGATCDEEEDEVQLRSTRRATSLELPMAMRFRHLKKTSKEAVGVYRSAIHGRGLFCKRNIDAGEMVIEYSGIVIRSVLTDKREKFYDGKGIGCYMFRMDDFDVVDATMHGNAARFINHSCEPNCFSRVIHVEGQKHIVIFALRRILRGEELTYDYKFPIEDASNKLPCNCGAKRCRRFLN
UniProt Q9H3R0: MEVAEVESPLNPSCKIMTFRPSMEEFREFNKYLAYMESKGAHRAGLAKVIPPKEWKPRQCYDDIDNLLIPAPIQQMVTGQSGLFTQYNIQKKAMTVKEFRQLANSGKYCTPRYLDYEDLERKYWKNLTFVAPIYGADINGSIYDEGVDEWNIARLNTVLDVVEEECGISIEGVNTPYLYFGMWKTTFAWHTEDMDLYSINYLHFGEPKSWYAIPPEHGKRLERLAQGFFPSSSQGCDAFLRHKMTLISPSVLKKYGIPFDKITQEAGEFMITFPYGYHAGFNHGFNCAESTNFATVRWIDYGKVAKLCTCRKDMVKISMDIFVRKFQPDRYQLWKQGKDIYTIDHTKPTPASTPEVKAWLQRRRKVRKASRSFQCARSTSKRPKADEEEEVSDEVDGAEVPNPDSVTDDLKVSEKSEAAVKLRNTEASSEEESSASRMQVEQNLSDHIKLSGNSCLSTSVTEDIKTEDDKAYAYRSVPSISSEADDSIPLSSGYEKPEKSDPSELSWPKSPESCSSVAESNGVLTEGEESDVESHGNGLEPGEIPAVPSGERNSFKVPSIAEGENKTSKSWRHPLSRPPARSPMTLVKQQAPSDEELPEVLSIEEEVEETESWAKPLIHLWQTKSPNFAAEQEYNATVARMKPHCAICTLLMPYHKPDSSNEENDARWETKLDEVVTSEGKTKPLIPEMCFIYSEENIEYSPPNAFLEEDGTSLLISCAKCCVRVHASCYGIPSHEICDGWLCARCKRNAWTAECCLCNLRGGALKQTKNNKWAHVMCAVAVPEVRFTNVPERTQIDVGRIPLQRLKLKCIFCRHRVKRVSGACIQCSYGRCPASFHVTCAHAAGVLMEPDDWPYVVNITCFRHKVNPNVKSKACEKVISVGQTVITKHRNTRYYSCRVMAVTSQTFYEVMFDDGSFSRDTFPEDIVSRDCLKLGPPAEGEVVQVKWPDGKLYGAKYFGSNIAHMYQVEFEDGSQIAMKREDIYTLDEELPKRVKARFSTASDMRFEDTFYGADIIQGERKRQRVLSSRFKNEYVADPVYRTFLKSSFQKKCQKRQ
UniProt Q86Y91: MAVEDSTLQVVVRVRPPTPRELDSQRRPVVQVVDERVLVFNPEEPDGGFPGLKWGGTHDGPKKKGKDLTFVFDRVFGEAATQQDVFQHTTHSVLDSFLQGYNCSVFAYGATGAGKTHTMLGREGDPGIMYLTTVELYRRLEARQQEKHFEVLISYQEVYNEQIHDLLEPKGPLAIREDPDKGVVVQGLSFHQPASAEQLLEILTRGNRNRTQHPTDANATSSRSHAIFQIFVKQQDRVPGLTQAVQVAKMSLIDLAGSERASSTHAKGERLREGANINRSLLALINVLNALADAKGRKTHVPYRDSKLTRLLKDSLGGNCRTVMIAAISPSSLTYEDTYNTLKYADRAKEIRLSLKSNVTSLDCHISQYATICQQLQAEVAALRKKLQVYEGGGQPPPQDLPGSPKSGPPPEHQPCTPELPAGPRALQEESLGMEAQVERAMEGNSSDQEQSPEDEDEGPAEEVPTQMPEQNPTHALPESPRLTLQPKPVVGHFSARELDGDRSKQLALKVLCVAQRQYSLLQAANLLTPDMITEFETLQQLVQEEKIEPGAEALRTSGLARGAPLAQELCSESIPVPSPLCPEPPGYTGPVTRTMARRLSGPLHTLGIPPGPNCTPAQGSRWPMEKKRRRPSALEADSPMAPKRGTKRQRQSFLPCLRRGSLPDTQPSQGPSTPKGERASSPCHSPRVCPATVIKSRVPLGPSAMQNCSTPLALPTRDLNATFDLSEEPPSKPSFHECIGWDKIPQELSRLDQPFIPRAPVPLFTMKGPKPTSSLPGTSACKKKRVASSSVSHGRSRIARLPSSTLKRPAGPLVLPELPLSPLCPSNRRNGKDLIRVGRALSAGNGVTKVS
UniProt O95235: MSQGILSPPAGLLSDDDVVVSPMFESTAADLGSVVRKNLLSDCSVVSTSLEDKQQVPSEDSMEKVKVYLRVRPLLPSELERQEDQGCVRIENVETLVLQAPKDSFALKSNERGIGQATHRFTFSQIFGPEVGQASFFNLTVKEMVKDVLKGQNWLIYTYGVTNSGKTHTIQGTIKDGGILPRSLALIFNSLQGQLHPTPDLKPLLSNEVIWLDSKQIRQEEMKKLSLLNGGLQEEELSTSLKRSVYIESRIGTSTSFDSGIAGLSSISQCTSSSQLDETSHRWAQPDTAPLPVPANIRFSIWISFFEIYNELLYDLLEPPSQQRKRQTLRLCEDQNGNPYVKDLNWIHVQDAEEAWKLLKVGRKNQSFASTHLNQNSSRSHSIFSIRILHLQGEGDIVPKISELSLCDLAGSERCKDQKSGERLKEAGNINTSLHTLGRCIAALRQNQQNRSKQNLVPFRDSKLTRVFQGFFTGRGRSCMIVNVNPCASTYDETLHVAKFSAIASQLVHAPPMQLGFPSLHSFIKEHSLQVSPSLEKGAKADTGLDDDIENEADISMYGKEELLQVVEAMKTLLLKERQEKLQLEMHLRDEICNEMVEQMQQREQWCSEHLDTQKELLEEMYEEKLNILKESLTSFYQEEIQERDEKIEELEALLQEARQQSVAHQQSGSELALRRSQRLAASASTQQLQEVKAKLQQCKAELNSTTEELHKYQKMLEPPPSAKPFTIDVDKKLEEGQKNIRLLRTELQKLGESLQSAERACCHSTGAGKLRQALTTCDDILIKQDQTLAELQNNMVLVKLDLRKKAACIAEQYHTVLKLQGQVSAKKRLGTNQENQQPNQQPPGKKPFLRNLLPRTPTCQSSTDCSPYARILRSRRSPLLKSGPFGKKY
UniProt P07288: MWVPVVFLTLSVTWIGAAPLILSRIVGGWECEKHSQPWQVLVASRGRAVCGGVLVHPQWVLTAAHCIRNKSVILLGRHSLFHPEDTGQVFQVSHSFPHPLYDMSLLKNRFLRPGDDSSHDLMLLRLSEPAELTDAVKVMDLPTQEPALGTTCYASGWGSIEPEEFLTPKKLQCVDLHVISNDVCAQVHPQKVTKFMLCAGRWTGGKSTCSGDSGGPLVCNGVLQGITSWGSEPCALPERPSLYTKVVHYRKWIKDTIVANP

Key:
Assay in all cases: log2 fold change, soluble protein after heating vs DMSO (PISA); higher = thermal stabilisation; K562 lysate, 10 uM; active = over 0.2 and 3.5 SD of the protein, either way, in both replicates (recomputed)
[1] = compound: C/C(=N\NC(=O)C1=CC(=CC=C1)S(=O)(=O)N2CCOCC2)/C3=C(C=CC(=C3)Cl)O
Outline: (§1)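 Quantification was by TMTpro 16plex LC-MS/MS with equalised channel sums, applied to the supernatant after 21,000xg for 90 min. Samples were crude K562 extract at 1 mg/mL protein in PBS pH 7.4 with 1 mM MgCl2, treated with 10 μM compound for 30 min, heated for 3 min across 48°C-58°C, pooled and brought to 0.5% NP-40 at 4°C. Values are log-two fold changes in thermal stability relative to solvent controls, from duplicates.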

[2] = compound: C1=CC2=C(C=CC(=C2)/C=C\3/C(=O)NC(=NCC4=CC=CS4)S3)N=C1
Outline: as §1

[3] = compound: C1=CC=C(C=C1)C2=NC(=C(N2)C3=CC=NC=C3)C4=CC(=C(C=C4)Cl)O
Outline: as §1

[4] = compound: C1=CC=C2C(=C1)C3=NNC4=CC=CC(=C43)C2=O
Outline: as §1

[5] = compound: C1CCN(C1)C(=O)NC2=CC=CC(=C2)NC3=NC=C(C(=N3)NCCC4=CN=CN4)Br
Outline: as §1

[6] = compound: C1CN(CCC1(CC2=CC=C(C=C2)Cl)N)C3=NC=NC4=C3C=CN4
Outline: as §1

IRAK-1-4 Inhibitor I = compound: C1COCCN1CCN2C3=CC=CC=C3N=C2NC(=O)C4=CC(=CC=C4)[N+](=O)[O-] [IRAK-1-4 Inhibitor I]
Outline: as §1

[7] = compound: CC(=O)c1cnc2ccc(-c3cc(Cl)c(O)c(Cl)c3)nc2c1N[C@H]1CC[C@H](CN(C)C)CC1
Outline: as §1

ralimetinib = compound: CC(C)(C)Cn1c(N)nc2ccc(-c3[nH]c(C(C)(C)C)nc3-c3ccc(F)cc3)nc21 [ralimetinib]
Outline: as §1

[8] = compound: CC(C)(O)CC(=O)NCCn1ccc2ncnc(Nc3ccc(Oc4cccc(C(F)(F)F)c4)c(Cl)c3)c21
Outline: as §1

[9] = compound: CC1=C(C(CC(=O)N1)C2=CC=C(C=C2)C(F)(F)F)C(=O)NC3=C(C=C4C(=C3)C=NN4)F
Outline: as §1

[10] = compound: CC1=C(C=C(C=C1)NC(=O)C2=CC(=CC=C2)C(C)(C)C#N)NC3=CC4=C(C=C3)N=CN(C4=O)C
Outline: as §1

[11] = compound: CC1=C(C=C(C=C1)NC(=O)C2=CC(=CC=C2)N(C)C)NC(=O)C3=CC=C(C=C3)O
Outline: as §1

[12] = compound: CC1=CC=C(C=C1)SC2=C3C=C(SC3=CN=C2)C(=O)N
Outline: as §1

erlotinib = compound: C#Cc1cccc(Nc2ncnc3cc(OCCOC)c(OCCOC)cc23)c1 [erlotinib]
Outline: as §1

[13] = compound: C1=CC(=CC=C1C2=NC3=C(N2)C=C(C=C3)C(=O)N)OC4=CC=C(C=C4)Cl
Outline: as §1

[14] = compound: CC(C)C1=C2N=C(C=C(N2N=C1)NCC3=CC=CC=C3)NCCCCCCN
Outline: as §1

[15] = compound: CC1=C(C2=C(C=C1)C(=O)C3=CC=CC=C3N2CCCN)C
Outline: as §1

[16] = compound: C1=CC2=NC=CN=C2C=C1/C=C/3\C(=O)NC(=O)S3
Outline: as §1

ibrutinib = compound: C=CC(=O)N1CCC[C@@H](n2nc(-c3ccc(Oc4ccccc4)cc3)c3c(N)ncnc32)C1 [ibrutinib]
Outline: as §1

Measured: log2 fold change

KLHL7 isoform 3 (UniProt Q8IXQ5)
inactive: [1] -0.095 | [2] 0.006 | [3] 0.01 | [4] -0.035 | [5] 0.074 | [6] 0.034 | IRAK-1-4 Inhibitor I 0.04 | [7] 0 | ralimetinib 0.081 | [8] -0.215 | [9] 0.061 | [10] 0.086 | [11] 0.063 | [12] -0.029

KLHDC8B (UniProt Q8IXV7)
inactive: erlotinib -0.024 | [13] -0.093 | [3] 0.019 | [5] 0.061 | [6] 0.031 | IRAK-1-4 Inhibitor I -0.144 | ralimetinib -0.092 | [8] -0.004 | [14] 0.016 | [9] -0.037 | [15] 0.104 | [10] 0.079 | [11] 0.106

KRT87P (UniProt A6NCN2)
inactive: erlotinib 1.92 | [13] -0.061 | [14] 0.109

KIAA0930 isoform 2 (UniProt Q6ICG6)
inactive: [1] -0.004 | [2] -0.067 | [16] -0.229 | [3] -0.258 | [4] 0.203 | [5] 0.099 | [6] -0.01 | IRAK-1-4 Inhibitor I -0.063 | ibrutinib -0.16 | [7] -0.032 | ralimetinib 0.091 | [8] -0.085 | [9] -0.014 | [15] -0.119 | [10] 0.042 | [11] -0.289 | [12] -0.017

KIF21B (UniProt O75037)
inactive: [1] 0 | [2] -0.065 | [16] -0.022 | [3] 0 | [4] -0.215 | [5] -0.045 | [6] -0.003 | IRAK-1-4 Inhibitor I 0.112 | ibrutinib -0.064 | [7] -0.093 | ralimetinib 0.001 | [8] -0.175 | [9] 0.05 | [15] -0.02 | [10] 0.134 | [11] -0.062 | [12] -0.2

KMT2B (UniProt Q9UMN6)
inactive: erlotinib -0.494 | [13] -0.226 | [5] -0.028 | [6] -0.015 | [14] 0.53 | [15] -0.135 | [10] -0.072

KDM4C (UniProt Q9H3R0)
inactive: [16] -0.16 | [3] 0.204 | IRAK-1-4 Inhibitor I 0.27 | ibrutinib 0.28 | ralimetinib -0.038 | [8] -0.467 | [9] 0.424 | [15] 0.139 | [11] 0.257

LARGE2 (UniProt Q8N3Y3)
inactive: [9] -0.002

KIF18B (UniProt Q86Y91)
inactive: [5] -0.117 | [6] 0.033 | [7] -0.157 | [15] -0.022 | [10] 0 | [12] -0.121

KREMEN1 isoform 2 (UniProt Q96MU8)
inactive: [10] -0.045

KIAA0586 isoform 3 (UniProt Q9BVV6)
inactive: erlotinib 0.101 | [13] 0.258 | [3] 0.027 | IRAK-1-4 Inhibitor I -0.021 | ralimetinib -0.079 | [8] -0.059 | [14] 0.08 | [9] 0.088 | [15] 0.032 | [10] 0.118 | [11] 0.042

KIAA0556 (UniProt O60303)
inactive: [9] -0.126

KIFAP3 (UniProt Q92845)
inactive: [16] -0.003 | [3] 0.029 | [5] -0.118 | [6] 0.179 | IRAK-1-4 Inhibitor I 0.023 | ibrutinib 0.017 | ralimetinib -0.013 | [8] 0.009 | [9] 0.144 | [15] 0.009 | [10] -0.027 | [11] -0.018

KIDINS220 isoform 2 (UniProt Q9ULH0)
inactive: [1] -0.103 | [2] 0.087 | [4] -0.345

Quoted at random: two records from the list.
KIF21B (UniProt O75037)
inactive: [1] 0 | [2] -0.065 | [16] -0.022 | [3] 0 | [4] -0.215 | [5] -0.045 | [6] -0.003 | IRAK-1-4 Inhibitor I 0.112 | ibrutinib -0.064 | [7] -0.093 | ralimetinib 0.001 | [8] -0.175 | [9] 0.05 | [15] -0.02 | [10] 0.134 | [11] -0.062 | [12] -0.2

KLHDC8B (UniProt Q8IXV7)
inactive: erlotinib -0.024 | [13] -0.093 | [3] 0.019 | [5] 0.061 | [6] 0.031 | IRAK-1-4 Inhibitor I -0.144 | ralimetinib -0.092 | [8] -0.004 | [14] 0.016 | [9] -0.037 | [15] 0.104 | [10] 0.079 | [11] 0.106

Additional results.

KIF20A (UniProt O95235)
inactive: [1] 0.036 | [2] -0.064 | [16] 0.093 | [3] 0 | [4] -0.011 | [5] 0.002 | [6] 0.167 | IRAK-1-4 Inhibitor I -0.004 | ibrutinib -0.017 | ralimetinib -0.007 | [8] 0.239 | [9] -0.04 | [15] 0.014 | [10] 0.012 | [11] 0.028

KLK3 (UniProt P07288)
inactive: [15] -0.86
